Data from doi:10.1101/2022.05.07.491033.
Results are given in words; binding and its absence hold for the method and conditions named. Binding seen in cells or lysates may run through a third protein. Some results given as binding are weak or reduced against the parent protein; the word gives no strength.

By UniProt entry, the sequences of proteins in these tests, tags left out. Residues count along the entry.
UniProt Q63604, residues 32-821: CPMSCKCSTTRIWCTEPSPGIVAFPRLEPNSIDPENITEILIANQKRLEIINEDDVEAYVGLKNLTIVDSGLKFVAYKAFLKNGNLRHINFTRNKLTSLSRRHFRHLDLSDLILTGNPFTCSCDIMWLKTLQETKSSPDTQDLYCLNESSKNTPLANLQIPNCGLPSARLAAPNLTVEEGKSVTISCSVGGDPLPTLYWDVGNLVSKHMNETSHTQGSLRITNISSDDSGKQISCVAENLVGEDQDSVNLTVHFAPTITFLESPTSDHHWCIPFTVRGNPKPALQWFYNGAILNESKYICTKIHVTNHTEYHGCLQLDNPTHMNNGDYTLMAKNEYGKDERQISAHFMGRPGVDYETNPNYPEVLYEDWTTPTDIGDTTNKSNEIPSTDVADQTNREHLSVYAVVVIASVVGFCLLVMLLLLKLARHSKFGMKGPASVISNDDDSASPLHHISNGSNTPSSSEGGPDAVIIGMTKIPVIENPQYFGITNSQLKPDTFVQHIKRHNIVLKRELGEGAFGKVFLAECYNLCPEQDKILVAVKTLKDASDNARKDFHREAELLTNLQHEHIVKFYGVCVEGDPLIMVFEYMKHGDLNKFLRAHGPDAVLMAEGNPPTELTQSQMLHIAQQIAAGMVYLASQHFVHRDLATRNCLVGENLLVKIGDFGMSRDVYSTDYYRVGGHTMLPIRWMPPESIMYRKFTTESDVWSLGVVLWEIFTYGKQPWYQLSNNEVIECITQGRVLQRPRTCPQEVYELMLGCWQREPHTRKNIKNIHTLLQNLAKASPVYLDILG

Molecular target: TRKB receptor (endogenous) (rat (endogenous in cultured neurons from Wistar rat embryos)) (UniProt Q63604)
Experiment: co-IP + ELISA

B1: phospholipase Cγ1 (PLCγ1), endogenous (enzyme, UniProt P10686 1-1290)
chain: MAGVGTPCANGCGPSAPSEAEVLHLCRSLEVGTVMTLFYSKKSQRPERKTFQVKLETRQITWSRGADKIEGSIDIREIKEIRPGKTSRDFDRYQEDPAFRPDQSHCFVILYGMEFRLKTLSLQATSEDEVNMWIKGLTWLMEDTLQAATPLQIERWLRKQFYSVDRNREDRISAKDLKNMLSQVNYRVPNMRFLRERLTDFEQRSGDITYGQFAQLYRSLMYSAQKTMDLPFLETNTLRTGERPELCQVSLSEFQQFLLEYQGELWAVDRLQVQEFMLSFLRDPLREIEEPYFFLDELVTFLFSKENSVWNSQLDAVCPETMNNPLSHYWISSSHNTYLTGDQFSSESSLEAYARCLRMGCRCIELDCWDGPDGMPVIYHGHTLTTKIKFSDVLHTIKEHAFVASEYPVILSIEDHCSIAQQRNMAQHFRKVLGDTLLTKPVDIAADGLPSPNQLKRKILIKHKKLAEGSAYEEVPTSVMYSENDISNSIKNGILYLEDPVNHEWYPHYFVLTSSKIYYSEETSSDQGNEDEEEPKEASGSTELHSSEKWFHGKLGAGRDGRHIAERLLTEYCIETGAPDGSFLVRESETFVGDYTLSFWRNGKVQHCRIHSRQDAGTPKFFLTDNLVFDSLYDLITHYQQVPLRCNEFEMRLSEPVPQTNAHESKEWYHASLTRAQAEHMLMRVPRDGAFLVRKRNEPNSYAISFRAEGKIKHCRVQQEGQTVMLGNSEFDSLVDLISYYEKHPLYRKMKLRYPINEEALEKIGTAEPDYGALYEGRNPGFYVEANPMPTFKCAVKALFDYKAQREDELTFTKSAIIQNVEKQDGGWWRGDYGGKKQLWFPSNYVEEMINPAILEPEREHLDENSPLGDLLRGVLDVPACQIAIRPEGKNNRLFVFSISMPSVAQWSLDVAADSQEELQDWVKKIREVAQTADARLTEGKMMERRKKIALELSELVVYCRPVPFDEEKIGTERACYRDMSSFPETKAEKYVNKAKGKKFLQYNRLQLSRIYPKGQRLDSSNYDPLPMWICGSQLVALNFQTPDKPMQMNQALFMAGGHCGYVLQPSTMRDEAFDPFDKSSLRGLEPCVICIEVLGARHLPKNGRGIVCPFVEIEVAGAEYDSTKQKTEFVVDNGLNPVWPAKPFHFQISNPEFAFLRFVVYEEDMFSDQNFLAQATFPVKGLKTGYRAVPLKNNYSEDLELASLLIKIDIFPAKENGDLSPFSGTSLRERASDASSQLFHVRAREGSFEARYQQPFEDFRISQEHLADHFDSRERRAPRRTRVNGDNRL
binding: binds
